Results are given in words; binding and its absence hold for the method and conditions named. In cells and extracts the contact can be indirect. These calls come from enrichment with a bait or labelling near it, and not all partners need be listed.
Biological target: MERS-CoV non-structural protein 1 (nsp1) (MERS-CoV) (UniProt K9N7C7)
Experiment: affinity purification with mass spectrometry

Protein sequences, listed by entry. Tags and fused reporters are not part of them. Residues count along the entry.
UniProt K9N7C7, residues 1-193: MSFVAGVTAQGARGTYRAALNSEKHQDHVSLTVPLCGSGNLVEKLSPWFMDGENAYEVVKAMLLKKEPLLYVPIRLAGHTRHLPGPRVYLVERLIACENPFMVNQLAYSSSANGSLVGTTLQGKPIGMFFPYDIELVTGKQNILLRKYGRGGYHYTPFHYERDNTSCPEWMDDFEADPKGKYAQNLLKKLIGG
UniProt Q9UM54: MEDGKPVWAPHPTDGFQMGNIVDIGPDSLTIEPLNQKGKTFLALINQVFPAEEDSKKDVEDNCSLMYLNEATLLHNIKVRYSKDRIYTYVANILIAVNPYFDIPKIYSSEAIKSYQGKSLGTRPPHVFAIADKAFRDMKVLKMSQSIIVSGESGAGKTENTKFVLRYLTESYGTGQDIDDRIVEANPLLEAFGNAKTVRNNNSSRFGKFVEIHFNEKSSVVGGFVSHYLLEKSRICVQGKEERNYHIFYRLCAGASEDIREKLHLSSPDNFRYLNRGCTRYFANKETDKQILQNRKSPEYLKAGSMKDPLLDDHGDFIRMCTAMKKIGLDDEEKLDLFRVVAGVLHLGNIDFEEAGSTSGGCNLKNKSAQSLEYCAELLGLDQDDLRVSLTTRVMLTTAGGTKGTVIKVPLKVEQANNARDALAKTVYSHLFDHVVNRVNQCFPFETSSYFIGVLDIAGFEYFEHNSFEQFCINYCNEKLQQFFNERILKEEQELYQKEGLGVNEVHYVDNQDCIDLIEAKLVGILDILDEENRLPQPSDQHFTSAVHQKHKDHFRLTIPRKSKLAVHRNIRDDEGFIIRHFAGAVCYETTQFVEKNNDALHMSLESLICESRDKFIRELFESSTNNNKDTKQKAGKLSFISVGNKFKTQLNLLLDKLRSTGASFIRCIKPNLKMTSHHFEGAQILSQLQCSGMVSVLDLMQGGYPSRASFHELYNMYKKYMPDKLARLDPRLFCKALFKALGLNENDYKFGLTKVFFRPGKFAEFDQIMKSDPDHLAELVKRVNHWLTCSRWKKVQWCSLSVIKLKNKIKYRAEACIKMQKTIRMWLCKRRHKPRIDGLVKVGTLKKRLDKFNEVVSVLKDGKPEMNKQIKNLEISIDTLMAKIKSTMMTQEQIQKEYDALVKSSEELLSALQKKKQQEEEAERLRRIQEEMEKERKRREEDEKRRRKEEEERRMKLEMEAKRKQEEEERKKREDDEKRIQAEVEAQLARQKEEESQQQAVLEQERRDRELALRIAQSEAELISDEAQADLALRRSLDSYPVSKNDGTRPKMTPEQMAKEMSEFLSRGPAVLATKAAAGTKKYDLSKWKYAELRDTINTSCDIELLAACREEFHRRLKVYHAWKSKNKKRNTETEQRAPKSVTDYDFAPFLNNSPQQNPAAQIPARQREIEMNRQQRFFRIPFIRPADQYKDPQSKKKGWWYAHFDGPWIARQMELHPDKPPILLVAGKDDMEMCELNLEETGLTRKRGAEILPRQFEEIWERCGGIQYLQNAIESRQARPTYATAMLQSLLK

Myosin VI (from UniProt Q9UM54 1-1294)
binding: binds
